The record followed here is patent publication US20210072244A1, “METHODS AND COMPOSITIONS FOR TREATING MELANOMA RESISTANT” (INSERM (INSTITUT NATIONAL DE LA SANTÉ ET DE LA RECHERCHE …, priority 2018, published 2021).

Structures are written as SMILES.

The series concerns UACC62 and WM9 human melanoma cell lines (BRAFV600E). Put plainly: Global metabolic profiling by UPLC-MS/MS. The format is cell-based. As for the experimental part: Briefly, samples were prepared using the automated MicroLab STAR® system (Hamilton Company). Recovery standards were added prior to the first step in the extraction process for QC purposes. Cell lysates were precipitated using methanol under vigorous shaking for 2 min, followed by centrifugation. The resulting extract was divided into five fractions: two samples for analysis using two separate reversephase (RP)/UPLC-MS/MS methods with positive ion mode electrospray ionization (ESI), one sample for analysis through RP/UPLC-MS/MS with negative ion mode ESI, one sample for analysis through HILIC/UPLC-MS/MS with negative ion mode ESI, and one sample was reserved for backup. The samples were briefly placed on a TurboVap® (Zymark) to remove the organic solvent. The sample extracts were stored overnight under nitrogen prior to preparation for analysis. Chromatography analyses were performed using Waters ACQUITY ultra-performance liquid chromatography (UPLC) and a Thermo Scientific Q-Exactive high resolution/accurate mass spectrometer interfaced with a heated electrospray ionization (HESI-II) source and Orbitrap mass analyzer operated at 35,000 mass resolution. The sample extract was dried and subsequently reconstituted in solvents compatible to each method (Miller et al. 2015). […]

Consider `CCCS(=O)(=O)Nc1ccc(F)c(C(=O)c2c[nH]c3ncc(-c4ccc(Cl)cc4)cc23)c1F` [PLX4032], for which the metabolites downregulated turned out to be 45 and the metabolites upregulated was found to be 48.
